Experimental data published in the supplement of paper PMC6411743.
± gives the standard deviation of the averaged measurements. Some of the results follow.

Chains of the proteins cited; added tags and fusions are not shown. Lines headed by an entry give the natural chain unless they say otherwise; changes in a name come on top.
UniProt Q9Y3A6: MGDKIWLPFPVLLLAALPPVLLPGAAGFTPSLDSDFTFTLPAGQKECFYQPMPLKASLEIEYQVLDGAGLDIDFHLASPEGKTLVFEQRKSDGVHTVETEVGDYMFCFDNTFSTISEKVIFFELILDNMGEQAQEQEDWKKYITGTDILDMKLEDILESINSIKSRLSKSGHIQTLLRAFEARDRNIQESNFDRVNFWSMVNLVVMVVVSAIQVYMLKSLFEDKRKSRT
UniProt Q9Y3B4: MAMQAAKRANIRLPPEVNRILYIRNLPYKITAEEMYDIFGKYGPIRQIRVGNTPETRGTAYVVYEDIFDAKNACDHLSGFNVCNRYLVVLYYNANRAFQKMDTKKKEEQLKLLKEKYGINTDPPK
UniProt Q9Y2W1: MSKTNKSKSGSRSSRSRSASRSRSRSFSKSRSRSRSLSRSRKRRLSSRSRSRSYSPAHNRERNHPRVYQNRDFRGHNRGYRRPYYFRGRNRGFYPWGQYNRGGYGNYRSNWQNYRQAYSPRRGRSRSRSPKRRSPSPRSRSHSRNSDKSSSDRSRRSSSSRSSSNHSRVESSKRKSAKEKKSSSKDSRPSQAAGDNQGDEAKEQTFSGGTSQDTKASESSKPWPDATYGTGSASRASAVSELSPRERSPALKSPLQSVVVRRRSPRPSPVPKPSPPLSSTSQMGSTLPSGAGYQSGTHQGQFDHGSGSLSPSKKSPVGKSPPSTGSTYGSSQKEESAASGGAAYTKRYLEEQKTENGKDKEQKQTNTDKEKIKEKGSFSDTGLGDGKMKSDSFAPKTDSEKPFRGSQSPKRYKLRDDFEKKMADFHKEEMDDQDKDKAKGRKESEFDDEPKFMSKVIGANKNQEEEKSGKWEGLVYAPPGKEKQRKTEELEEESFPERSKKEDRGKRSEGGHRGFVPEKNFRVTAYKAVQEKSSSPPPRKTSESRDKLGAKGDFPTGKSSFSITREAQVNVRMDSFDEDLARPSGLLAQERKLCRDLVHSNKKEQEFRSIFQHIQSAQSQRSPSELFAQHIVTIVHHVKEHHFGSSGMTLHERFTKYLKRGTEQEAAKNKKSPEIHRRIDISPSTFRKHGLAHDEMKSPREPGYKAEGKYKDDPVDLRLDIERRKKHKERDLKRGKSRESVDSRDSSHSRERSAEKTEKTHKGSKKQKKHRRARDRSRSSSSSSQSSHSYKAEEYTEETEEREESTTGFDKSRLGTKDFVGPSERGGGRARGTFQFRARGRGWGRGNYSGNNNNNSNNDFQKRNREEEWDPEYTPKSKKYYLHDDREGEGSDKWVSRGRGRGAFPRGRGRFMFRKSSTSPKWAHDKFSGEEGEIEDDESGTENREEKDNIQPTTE
UniProt Q9Y3Y2: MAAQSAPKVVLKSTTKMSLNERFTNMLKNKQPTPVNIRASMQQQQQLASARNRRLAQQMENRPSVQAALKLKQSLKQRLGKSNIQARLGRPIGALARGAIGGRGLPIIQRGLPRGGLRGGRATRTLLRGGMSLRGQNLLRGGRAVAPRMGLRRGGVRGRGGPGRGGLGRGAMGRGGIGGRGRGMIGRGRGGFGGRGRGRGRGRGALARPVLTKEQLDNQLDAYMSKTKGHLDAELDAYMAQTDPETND
UniProt Q9Y679: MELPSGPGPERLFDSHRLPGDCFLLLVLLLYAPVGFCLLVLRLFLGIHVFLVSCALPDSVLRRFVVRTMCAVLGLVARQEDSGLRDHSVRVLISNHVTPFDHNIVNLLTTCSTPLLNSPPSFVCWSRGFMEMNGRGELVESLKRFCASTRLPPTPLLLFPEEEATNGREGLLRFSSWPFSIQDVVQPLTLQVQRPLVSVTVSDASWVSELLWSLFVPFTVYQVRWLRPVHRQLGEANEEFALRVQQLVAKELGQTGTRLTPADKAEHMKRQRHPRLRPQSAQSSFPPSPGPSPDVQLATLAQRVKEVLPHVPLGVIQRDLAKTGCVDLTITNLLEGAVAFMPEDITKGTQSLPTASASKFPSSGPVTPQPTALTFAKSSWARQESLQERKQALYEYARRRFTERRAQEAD
UniProt Q9Y333: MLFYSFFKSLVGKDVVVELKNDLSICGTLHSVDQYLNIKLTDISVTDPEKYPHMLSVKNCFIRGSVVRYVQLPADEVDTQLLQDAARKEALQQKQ
UniProt Q9Y2U8: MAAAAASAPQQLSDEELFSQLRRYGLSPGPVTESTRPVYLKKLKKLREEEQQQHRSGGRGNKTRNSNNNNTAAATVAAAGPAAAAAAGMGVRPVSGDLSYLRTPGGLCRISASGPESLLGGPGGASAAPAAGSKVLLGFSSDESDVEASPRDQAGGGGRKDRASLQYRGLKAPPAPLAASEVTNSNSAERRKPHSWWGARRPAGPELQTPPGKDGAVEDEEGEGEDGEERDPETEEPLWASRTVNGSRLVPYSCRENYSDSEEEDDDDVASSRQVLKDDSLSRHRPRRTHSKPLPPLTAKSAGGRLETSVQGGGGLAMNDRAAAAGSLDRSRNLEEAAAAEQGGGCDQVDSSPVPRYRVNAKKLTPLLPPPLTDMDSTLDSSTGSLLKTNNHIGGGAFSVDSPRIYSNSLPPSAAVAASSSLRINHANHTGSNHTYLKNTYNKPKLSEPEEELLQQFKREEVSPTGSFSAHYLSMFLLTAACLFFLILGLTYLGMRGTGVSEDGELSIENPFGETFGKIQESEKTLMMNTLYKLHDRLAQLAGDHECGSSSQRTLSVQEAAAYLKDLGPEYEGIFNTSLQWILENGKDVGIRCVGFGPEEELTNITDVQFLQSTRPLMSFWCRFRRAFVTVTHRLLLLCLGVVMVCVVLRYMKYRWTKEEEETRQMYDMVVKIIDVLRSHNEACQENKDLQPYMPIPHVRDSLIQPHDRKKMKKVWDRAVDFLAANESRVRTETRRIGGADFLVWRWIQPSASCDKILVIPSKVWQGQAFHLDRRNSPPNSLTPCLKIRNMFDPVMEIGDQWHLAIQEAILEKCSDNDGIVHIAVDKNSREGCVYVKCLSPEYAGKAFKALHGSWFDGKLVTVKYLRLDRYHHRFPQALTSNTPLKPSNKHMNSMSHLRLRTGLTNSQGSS
UniProt Q9Y3R5: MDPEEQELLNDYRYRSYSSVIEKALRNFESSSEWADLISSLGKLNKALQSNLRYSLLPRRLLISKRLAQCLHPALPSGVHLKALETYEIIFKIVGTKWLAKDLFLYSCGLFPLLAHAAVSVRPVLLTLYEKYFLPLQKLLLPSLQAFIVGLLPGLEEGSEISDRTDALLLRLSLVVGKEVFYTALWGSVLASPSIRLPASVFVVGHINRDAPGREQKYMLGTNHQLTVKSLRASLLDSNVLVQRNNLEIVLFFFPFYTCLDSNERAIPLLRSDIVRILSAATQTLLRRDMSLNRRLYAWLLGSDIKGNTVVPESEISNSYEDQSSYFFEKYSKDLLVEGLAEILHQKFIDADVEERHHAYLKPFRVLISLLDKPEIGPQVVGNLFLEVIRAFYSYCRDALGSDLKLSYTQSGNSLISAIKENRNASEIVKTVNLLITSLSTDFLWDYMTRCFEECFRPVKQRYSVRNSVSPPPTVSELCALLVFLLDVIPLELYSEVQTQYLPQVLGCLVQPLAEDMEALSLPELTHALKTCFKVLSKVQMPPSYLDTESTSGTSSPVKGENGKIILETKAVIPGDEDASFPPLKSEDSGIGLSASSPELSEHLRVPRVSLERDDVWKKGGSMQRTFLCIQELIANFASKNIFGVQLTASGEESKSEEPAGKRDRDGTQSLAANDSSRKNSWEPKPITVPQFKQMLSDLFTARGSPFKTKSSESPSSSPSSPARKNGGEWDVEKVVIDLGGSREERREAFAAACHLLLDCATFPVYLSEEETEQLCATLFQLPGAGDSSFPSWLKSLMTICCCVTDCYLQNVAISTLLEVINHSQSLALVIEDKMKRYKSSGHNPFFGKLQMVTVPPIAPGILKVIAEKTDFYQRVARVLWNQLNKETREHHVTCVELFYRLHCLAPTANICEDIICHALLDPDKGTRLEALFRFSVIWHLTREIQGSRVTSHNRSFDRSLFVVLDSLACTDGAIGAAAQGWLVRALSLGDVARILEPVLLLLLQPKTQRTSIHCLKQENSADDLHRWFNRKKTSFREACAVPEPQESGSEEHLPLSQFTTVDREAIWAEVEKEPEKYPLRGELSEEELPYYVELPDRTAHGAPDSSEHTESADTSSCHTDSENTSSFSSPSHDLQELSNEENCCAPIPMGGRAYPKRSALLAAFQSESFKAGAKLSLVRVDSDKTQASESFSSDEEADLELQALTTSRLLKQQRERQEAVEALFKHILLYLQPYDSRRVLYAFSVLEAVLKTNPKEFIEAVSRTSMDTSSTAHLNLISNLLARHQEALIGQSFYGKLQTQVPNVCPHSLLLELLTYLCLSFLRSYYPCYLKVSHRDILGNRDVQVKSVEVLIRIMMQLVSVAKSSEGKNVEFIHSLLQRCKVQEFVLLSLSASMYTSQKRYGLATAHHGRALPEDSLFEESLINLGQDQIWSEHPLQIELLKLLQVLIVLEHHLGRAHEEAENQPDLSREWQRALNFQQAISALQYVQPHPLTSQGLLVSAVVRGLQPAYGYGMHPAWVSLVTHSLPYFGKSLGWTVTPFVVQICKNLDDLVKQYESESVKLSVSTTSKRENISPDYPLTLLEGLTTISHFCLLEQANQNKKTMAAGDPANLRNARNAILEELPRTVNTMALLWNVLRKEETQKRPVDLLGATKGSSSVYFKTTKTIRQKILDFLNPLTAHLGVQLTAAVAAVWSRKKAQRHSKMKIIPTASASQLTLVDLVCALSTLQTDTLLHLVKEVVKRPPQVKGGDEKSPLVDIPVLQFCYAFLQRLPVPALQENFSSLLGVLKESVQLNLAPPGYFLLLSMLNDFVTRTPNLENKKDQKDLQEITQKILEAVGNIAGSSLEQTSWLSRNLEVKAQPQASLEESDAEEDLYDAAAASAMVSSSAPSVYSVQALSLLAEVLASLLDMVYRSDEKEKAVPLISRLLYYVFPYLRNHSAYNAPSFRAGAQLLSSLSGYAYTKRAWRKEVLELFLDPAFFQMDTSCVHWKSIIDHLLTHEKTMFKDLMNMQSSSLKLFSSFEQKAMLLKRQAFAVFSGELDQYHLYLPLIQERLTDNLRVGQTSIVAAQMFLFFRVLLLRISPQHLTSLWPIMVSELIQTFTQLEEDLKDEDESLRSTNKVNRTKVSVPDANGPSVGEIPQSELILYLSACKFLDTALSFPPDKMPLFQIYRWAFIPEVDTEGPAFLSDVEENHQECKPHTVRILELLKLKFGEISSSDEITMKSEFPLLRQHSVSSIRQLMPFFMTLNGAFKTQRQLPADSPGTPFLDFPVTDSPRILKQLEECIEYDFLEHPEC
UniProt Q9Y285: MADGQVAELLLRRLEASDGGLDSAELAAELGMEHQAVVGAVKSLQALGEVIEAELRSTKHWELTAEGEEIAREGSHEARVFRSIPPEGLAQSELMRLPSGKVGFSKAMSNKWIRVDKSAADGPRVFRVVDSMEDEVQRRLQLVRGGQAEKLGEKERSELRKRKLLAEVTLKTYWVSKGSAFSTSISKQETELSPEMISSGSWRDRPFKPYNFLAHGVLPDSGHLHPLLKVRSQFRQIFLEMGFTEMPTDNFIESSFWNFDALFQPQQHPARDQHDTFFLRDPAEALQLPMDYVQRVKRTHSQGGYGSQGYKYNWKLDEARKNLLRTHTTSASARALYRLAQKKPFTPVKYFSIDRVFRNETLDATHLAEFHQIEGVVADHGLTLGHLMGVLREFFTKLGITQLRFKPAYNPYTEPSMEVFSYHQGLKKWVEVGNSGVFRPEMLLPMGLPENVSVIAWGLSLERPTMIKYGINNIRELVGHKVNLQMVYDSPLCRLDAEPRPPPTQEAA
UniProt Q9Y2L9: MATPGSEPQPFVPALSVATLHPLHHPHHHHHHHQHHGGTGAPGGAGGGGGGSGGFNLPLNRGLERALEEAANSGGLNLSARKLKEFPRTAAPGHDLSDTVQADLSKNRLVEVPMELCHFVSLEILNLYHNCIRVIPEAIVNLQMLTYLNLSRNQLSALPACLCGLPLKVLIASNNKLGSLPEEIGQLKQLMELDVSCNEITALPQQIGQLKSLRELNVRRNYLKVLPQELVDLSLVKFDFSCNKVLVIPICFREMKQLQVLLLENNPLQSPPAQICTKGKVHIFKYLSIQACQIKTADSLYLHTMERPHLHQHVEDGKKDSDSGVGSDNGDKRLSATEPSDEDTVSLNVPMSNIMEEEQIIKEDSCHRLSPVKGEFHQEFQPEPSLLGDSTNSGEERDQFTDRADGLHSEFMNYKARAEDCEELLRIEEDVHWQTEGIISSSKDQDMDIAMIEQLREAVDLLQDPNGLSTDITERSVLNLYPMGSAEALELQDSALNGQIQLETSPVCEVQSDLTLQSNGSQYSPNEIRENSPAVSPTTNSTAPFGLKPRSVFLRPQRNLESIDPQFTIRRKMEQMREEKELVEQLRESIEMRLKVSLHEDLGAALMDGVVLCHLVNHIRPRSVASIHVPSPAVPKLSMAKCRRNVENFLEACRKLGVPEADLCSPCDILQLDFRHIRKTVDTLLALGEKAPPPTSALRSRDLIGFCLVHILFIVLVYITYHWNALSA

Compound: Nc1nc2c(ncn2[C@@H]2O[C@H](COP(=O)(O)OP(=O)(O)OP(=O)(O)O)[C@@H](O)[C@H]2O)c(=O)[nH]1 [guanosine triphosphate]
Test: NP40-soluble protein abundance relative to vehicle (solubility fold change) (ratio); higher = more soluble protein in presence of GTP
Outline: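 Jurkat crude lysate (Dounce-homogenised) was treated with eight concentrations from 0.1 to 10 mM for 10 min at room temperature, then 3 min at 37 °C. It was solubilised with 0.8% NP40 and benzonase (60 min, 4 °C) and ultracentrifuged, and the supernatant was TMT-labelled for LC-MS/MS. Intensities were vsn-normalised, and the value is the fold change against the NP40-processed vehicle per replicate, from three independent experiments.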

Target	NP40-soluble protein abundance (concentration: 0.1mM)	NP40-soluble protein abundance (concentration: 0.5mM)	NP40-soluble protein abundance (concentration: 1mM)	NP40-soluble protein abundance (concentration: 2mM)	NP40-soluble protein abundance (concentration: 4mM)	NP40-soluble protein abundance (concentration: 6mM)	NP40-soluble protein abundance (concentration: 8mM)	NP40-soluble protein abundance (concentration: 10mM)
TMED5 (UniProt Q9Y3A6)	1.05 ± 0.025	0.996 ± 0.023	1.01 ± 0.038	0.988 ± 0.019	0.919 ± 0.032	0.925 ± 0.031	0.925 ± 0.04	0.909 ± 0.078
MTMR6 (UniProt Q9Y217)	1.068 ± 0.0063	1.02 ± 0.027	0.967 ± 0.016	0.969 ± 0.01	0.93 ± 0.031	0.907 ± 0.0098	0.947 ± 0.034	0.913 ± 0.042
MRPS2 (UniProt Q9Y399)	1.11 ± 0.094	1.19 ± 0.2	1.25 ± 0.3	1.34 ± 0.38	1.37 ± 0.41	1.31 ± 0.4	1.27 ± 0.33	1.18 ± 0.3
UniProt Q9Y3B4	0.958 ± 0.1	0.959 ± 0.09	1.15 ± 0.18	1.23 ± 0.17	1.32 ± 0.24	1.26 ± 0.18	1.33 ± 0.2	1.52 ± 0.29
DYNC1LI1 (UniProt Q9Y6G9)	1 ± 0.011	1.06 ± 0.043	1.1 ± 0.084	1.13 ± 0.12	1.14 ± 0.13	1.16 ± 0.16	1.17 ± 0.18	1.17 ± 0.2
THRAP3 (UniProt Q9Y2W1)	0.99 ± 0.027	1.08 ± 0.054	1.18 ± 0.047	1.21 ± 0.08	1.23 ± 0.059	1.34 ± 0.077	1.43 ± 0.033	1.51 ± 0.067
DNMT3A (UniProt Q9Y6K1)	1.091 ± 0.0068	1.06 ± 0.03	1.04 ± 0.019	1.12 ± 0.1	1.09 ± 0.057	1.09 ± 0.081	1.1 ± 0.037	1.08 ± 0.07
WASF2 (UniProt Q9Y6W5)	0.946 ± 0.08	0.931 ± 0.071	0.998 ± 0.1	0.936 ± 0.12	0.971 ± 0.09	0.96 ± 0.094	1.02 ± 0.1	0.996 ± 0.13
UniProt Q9Y3Y2 and related entries	0.996 ± 0.053	0.928 ± 0.097	1.05 ± 0.1	1.13 ± 0.038	1.19 ± 0.034	1.21 ± 0.046	1.28 ± 0.15	1.49 ± 0.057
UniProt Q9Y679 and related entries	0.992 ± 0.057	0.997 ± 0.033	0.948 ± 0.029	0.968 ± 0.01	0.9583 ± 0.0062	0.969 ± 0.019	0.986 ± 0.043	0.979 ± 0.038
RABGAP1 (UniProt Q9Y3P9)	0.983 ± 0.033	0.989 ± 0.024	0.943 ± 0.026	0.9489 ± 0.0078	0.938 ± 0.019	0.928 ± 0.019	0.928 ± 0.012	0.925 ± 0.021
UniProt Q9Y333	0.946 ± 0.08	0.98 ± 0.11	0.973 ± 0.091	0.939 ± 0.1	0.887 ± 0.12	0.989 ± 0.13	0.962 ± 0.089	0.963 ± 0.059
USP15 (UniProt Q9Y4E8)	1 ± 0.045	0.975 ± 0.035	0.991 ± 0.046	0.967 ± 0.041	0.985 ± 0.035	0.961 ± 0.034	0.979 ± 0.055	0.936 ± 0.013
UniProt Q9UN86-2|Q9UN86	0.99 ± 0.086	1.02 ± 0.074	1.06 ± 0.08	1.06 ± 0.09	1.12 ± 0.1	1.16 ± 0.086	1.24 ± 0.1	1.21 ± 0.11
LEMD3 (UniProt Q9Y2U8)	0.989 ± 0.049	1 ± 0.038	1.01 ± 0.037	1.01 ± 0.048	0.999 ± 0.036	0.985 ± 0.033	1.01 ± 0.049	0.985 ± 0.027
UniProt Q9Y692 and related entries	1.04 ± 0.061	1.08 ± 0.092	1.04 ± 0.058	1.04 ± 0.1	1.06 ± 0.09	1.02 ± 0.1	1.01 ± 0.057	1.03 ± 0.05
UniProt Q9Y3R5 and related entries	1.11 ± 0.17	1.07 ± 0.11	1.1 ± 0.11	1.14 ± 0.17	1.13 ± 0.19	1.08 ± 0.087	1.07 ± 0.07	0.972 ± 0.083
UniProt Q9Y4Z0 and related entries	0.915 ± 0.038	0.88 ± 0.016	1.04 ± 0.09	1.02 ± 0.051	1.05 ± 0.027	0.979 ± 0.037	0.981 ± 0.11	1.05 ± 0.038
SCML2 (UniProt Q9UQR0)	1.01 ± 0.051	1.06 ± 0.033	1.11 ± 0.013	1.15 ± 0.045	1.16 ± 0.029	1.19 ± 0.046	1.24 ± 0.087	1.22 ± 0.073
UniProt Q9Y697 and related entries	1.05 ± 0.027	1.02 ± 0.028	0.974 ± 0.032	1.01 ± 0.014	0.992 ± 0.027	0.946 ± 0.025	0.928 ± 0.026	0.922 ± 0.068
FARSA (UniProt Q9Y285)	1.02 ± 0.032	1.03 ± 0.1	0.898 ± 0.06	0.925 ± 0.1	0.931 ± 0.073	0.887 ± 0.091	0.86 ± 0.037	0.851 ± 0.028
VDAC3 (UniProt Q9Y277)	0.95 ± 0.048	0.941 ± 0.034	0.891 ± 0.027	0.8766 ± 0.0075	0.893 ± 0.019	0.861 ± 0.013	0.847 ± 0.068	0.814 ± 0.057
UniProt Q9Y2V7 and related entries	1.048 ± 0.0094	1 ± 0.065	0.971 ± 0.051	1.02 ± 0.065	1.02 ± 0.05	1.01 ± 0.045	0.947 ± 0.059	0.949 ± 0.059
UniProt Q9Y2L9 and related entries	1.05 ± 0.063	1 ± 0.082	0.979 ± 0.026	1.02 ± 0.072	1.02 ± 0.028	1.08 ± 0.079	1.03 ± 0.067	1.01 ± 0.086

A run of entries from the list above:
Target	NP40-soluble protein abundance (concentration: 0.1mM)	NP40-soluble protein abundance (concentration: 0.5mM)	NP40-soluble protein abundance (concentration: 1mM)	NP40-soluble protein abundance (concentration: 2mM)	NP40-soluble protein abundance (concentration: 4mM)	NP40-soluble protein abundance (concentration: 6mM)	NP40-soluble protein abundance (concentration: 8mM)	NP40-soluble protein abundance (concentration: 10mM)
UniProt Q9UN86-2|Q9UN86	0.99 ± 0.086	1.02 ± 0.074	1.06 ± 0.08	1.06 ± 0.09	1.12 ± 0.1	1.16 ± 0.086	1.24 ± 0.1	1.21 ± 0.11
LEMD3 (UniProt Q9Y2U8)	0.989 ± 0.049	1 ± 0.038	1.01 ± 0.037	1.01 ± 0.048	0.999 ± 0.036	0.985 ± 0.033	1.01 ± 0.049	0.985 ± 0.027
UniProt Q9Y692 and related entries	1.04 ± 0.061	1.08 ± 0.092	1.04 ± 0.058	1.04 ± 0.1	1.06 ± 0.09	1.02 ± 0.1	1.01 ± 0.057	1.03 ± 0.05
UniProt Q9Y3R5 and related entries	1.11 ± 0.17	1.07 ± 0.11	1.1 ± 0.11	1.14 ± 0.17	1.13 ± 0.19	1.08 ± 0.087	1.07 ± 0.07	0.972 ± 0.083
UniProt Q9Y4Z0 and related entries	0.915 ± 0.038	0.88 ± 0.016	1.04 ± 0.09	1.02 ± 0.051	1.05 ± 0.027	0.979 ± 0.037	0.981 ± 0.11	1.05 ± 0.038
